Experimental findings from publication PMC10474297 are described below.

The chains behind the UniProt entries cited, without tags or fusion partners. Where a name states a change or a piece, a line headed by the entry shows the natural chain unless it says otherwise. A line that says so, or that is headed by a name, gives the form on record, which may keep a tag or linker. Residues count along the entry.
UniProt Q02224: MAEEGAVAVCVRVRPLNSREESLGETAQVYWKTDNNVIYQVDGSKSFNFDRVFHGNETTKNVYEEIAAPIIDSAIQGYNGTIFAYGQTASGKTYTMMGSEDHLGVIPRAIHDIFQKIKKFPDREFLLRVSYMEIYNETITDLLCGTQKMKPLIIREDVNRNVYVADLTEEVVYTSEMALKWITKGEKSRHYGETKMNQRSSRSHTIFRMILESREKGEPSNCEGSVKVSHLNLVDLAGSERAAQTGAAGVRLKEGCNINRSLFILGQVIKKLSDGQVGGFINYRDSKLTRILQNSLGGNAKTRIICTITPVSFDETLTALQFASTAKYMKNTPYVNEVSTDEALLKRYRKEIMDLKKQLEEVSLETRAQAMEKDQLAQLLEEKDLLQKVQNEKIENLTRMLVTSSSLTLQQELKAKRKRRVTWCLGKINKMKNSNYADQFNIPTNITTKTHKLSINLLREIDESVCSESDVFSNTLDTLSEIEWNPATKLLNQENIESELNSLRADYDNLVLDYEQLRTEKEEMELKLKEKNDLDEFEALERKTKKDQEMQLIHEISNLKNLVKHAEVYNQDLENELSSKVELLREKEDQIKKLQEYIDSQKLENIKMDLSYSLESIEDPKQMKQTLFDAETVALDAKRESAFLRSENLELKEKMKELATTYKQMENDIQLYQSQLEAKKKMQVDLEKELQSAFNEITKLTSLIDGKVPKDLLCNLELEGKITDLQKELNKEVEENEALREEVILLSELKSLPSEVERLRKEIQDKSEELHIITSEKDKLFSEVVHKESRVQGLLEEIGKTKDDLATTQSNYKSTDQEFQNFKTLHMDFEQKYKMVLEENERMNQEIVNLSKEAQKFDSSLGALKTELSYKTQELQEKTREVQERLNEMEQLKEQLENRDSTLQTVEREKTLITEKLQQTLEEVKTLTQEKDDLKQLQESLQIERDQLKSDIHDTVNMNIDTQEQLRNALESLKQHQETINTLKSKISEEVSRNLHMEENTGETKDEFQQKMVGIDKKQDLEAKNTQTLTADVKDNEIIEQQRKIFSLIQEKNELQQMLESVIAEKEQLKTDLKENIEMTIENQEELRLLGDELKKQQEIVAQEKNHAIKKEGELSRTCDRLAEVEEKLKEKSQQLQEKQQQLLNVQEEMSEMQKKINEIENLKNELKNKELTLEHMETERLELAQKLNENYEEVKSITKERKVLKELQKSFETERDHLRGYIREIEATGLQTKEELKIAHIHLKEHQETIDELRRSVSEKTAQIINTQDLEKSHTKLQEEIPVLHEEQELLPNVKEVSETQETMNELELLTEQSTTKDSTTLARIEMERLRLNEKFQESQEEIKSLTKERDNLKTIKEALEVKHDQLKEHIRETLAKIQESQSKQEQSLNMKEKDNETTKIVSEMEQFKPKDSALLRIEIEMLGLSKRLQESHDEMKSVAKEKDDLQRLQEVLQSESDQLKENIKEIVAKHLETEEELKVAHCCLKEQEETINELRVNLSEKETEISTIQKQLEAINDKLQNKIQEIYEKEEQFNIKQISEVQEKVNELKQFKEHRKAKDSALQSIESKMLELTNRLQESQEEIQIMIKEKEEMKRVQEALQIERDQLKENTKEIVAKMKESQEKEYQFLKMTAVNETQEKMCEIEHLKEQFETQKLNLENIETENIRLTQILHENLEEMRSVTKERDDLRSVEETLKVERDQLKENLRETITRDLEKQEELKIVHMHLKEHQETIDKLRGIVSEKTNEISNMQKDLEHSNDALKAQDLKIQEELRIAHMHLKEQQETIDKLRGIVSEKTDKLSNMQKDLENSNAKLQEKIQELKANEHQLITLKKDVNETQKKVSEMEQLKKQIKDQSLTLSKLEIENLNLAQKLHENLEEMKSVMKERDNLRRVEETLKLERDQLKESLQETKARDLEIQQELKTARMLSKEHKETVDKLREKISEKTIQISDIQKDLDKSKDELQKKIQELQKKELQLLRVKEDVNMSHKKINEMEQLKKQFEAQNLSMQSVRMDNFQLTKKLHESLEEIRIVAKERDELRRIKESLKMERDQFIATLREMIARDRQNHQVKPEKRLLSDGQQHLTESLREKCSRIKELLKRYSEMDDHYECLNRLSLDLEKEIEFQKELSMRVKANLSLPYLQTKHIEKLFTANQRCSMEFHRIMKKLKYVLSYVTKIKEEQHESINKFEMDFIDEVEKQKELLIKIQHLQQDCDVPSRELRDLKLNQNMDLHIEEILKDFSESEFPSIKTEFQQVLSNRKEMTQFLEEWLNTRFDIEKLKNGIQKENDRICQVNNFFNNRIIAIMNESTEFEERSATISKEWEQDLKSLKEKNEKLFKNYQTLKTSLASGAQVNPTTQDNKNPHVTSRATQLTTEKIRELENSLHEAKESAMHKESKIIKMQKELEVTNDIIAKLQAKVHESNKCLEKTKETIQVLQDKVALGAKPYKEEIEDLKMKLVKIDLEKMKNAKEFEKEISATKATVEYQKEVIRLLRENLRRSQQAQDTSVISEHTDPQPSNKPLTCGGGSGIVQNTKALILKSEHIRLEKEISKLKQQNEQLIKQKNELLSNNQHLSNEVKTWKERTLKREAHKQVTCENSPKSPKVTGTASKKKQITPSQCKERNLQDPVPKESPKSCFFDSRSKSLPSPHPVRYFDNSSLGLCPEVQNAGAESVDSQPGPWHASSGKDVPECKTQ
FLAG-GFP-CENP-E (1799-2701), C-terminal region of CENP-E: residues 1799-2701 of Q02224
CENP-E-MYC (1-859) T422A, N-terminal region of CENP-E with the T422A mutation (Q02224, form named): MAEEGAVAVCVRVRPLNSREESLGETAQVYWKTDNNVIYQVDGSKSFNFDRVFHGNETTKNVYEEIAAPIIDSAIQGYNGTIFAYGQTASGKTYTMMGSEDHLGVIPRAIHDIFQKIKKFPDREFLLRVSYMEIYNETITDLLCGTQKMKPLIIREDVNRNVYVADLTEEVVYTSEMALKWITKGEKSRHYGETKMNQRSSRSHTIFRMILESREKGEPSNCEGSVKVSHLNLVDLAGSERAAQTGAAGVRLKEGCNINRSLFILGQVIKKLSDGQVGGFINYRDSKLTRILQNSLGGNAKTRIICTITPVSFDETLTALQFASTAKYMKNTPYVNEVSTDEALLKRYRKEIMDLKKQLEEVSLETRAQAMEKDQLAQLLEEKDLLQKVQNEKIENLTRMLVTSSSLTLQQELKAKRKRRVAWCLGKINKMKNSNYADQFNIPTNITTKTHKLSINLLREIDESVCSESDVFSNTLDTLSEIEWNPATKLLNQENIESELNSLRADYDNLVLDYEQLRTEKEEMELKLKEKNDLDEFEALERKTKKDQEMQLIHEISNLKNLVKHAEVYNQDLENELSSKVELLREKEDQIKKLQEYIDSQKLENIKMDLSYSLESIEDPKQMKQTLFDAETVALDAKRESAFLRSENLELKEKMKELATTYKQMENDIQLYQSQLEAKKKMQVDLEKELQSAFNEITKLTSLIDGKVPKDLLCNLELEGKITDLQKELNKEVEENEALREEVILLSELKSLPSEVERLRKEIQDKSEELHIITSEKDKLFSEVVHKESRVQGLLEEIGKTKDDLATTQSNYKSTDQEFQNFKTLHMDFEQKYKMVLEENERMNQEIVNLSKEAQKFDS
UniProt Q9Y6G9: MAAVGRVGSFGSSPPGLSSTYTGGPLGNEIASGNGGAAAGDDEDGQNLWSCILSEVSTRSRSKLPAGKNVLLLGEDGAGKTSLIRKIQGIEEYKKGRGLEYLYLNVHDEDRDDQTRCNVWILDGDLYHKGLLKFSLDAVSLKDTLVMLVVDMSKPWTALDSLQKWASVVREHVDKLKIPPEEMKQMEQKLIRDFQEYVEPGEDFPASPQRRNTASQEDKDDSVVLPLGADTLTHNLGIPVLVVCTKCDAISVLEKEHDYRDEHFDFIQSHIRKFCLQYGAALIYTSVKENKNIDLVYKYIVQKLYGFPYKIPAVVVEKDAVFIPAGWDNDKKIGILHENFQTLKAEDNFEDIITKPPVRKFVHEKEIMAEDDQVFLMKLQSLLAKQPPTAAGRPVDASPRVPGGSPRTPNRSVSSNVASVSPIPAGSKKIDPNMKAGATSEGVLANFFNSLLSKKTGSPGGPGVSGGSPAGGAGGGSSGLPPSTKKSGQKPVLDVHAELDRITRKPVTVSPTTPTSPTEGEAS

These are yes or no findings as the source states them, for the method shown. In cells and extracts the contact can be indirect. Some entries that bind do so weakly or less than the wild type.

Test [1] addresses GFP-CENP-E WT (full-length) (UniProt Q02224). Description: co-IP; full-length GFP-CENP-E immunoprecipitated (antibody on Dynabeads Protein G) from HEK 293 T cells transfected for 48 h, with control or CENP-E 3'UTR siRNA, 3.3 μM nocodazole 16 h; detergent-free lysis buffer (20 mM HEPES, 10 mM KCl, 1 mM MgCl2, 1 mM EDTA, 1 mM EGTA), freeze/thaw and …; blots for p150 and LIC.
In test [2] the target is FLAG-GFP-CENP-E (1799-2701), C-terminal region of CENP-E (UniProt Q02224). Description: co-IP; the C-terminal domain FLAG-GFP-CENP-E-C immunoprecipitated (antibody on Dynabeads Protein G) from HEK 293 T cells co-transfected with GFP-CENP-E-N-MYC constructs for 48 h, 3.3 μM nocodazole 16 h; Triton X-100 buffer (25 mM HEPES, 100 mM NaCl, 1 mM EDTA, 10% glycerol, 1% Triton X-100), sonication.

Turning to “dynactin subunit p150/Glued (from UniProt Q14203-1 1-1278)”, the binding entry in test [1] is “binds”. Turning to “dynein light intermediate chain 1 (LIC1) (from UniProt Q9Y6G9 1-523)”, in test [1], the binding entry is on record as “binds”. Turning to “CENP-E-MYC (1-859) T422A, N-terminal region of CENP-E with the T422A mutation (from UniProt Q02224 1-859) (domain or fragment)”, the binding result in test [2] is on record as “binds”. Same read-out and setting: to “CENP-E-MYC (1-859) WT, N-terminal region of CENP-E (from UniProt Q02224 1-859) (domain or fragment)” belongs “binds”.
